In ChEMBL document CHEMBL5247626, “In vitro and in vivo biological evaluation of newly synthesized multi-target 20(R)-panaxadiol derivatives for treating Alzheimer's disease” (Eur J Med Chem, 2022):

Test: Permeability of the compound incubated for 4 hrs by PAMPA-BBB assay based HPLC analysis

**Q.** With `COc1cc2c(cc1OC)C(=O)C(CC1CCN(Cc3ccccc3)CC1)C2` (stereo unspecified) [DONEPEZIL] as the compound, how does the Papp at 4 h read?
**A.** Its Papp at 4 h is 30.3 ×10⁻⁶ cm/s.
